Laboratory results taken from US20160090556A1, “PRODUCTS COMPRISING MALODOR REDUCTION MATERIALS” (The Procter & Gamble Company, priority 2014, published 2016).
Like-named read-outs stand apart in the source and are kept apart here. Some compounds share one wording; it may come from a single statement.

Key:
[1] = Melamine formaldehyde PMC Headspace Response Ratio; conditions: for Comment Code: Melamine formaldehyde PMC Headspace Response Ratio: code letter I
[2] = Melamine formaldehyde PMC leakage
[3] = class code letter within Comment Code
[4] = code J of the Comment Code column, Table 1

SMILES	Melamine formaldehyde PMC Headspace Response Ratio (Comment Code I) [1, 3]	Comment Code: Melamine formaldehyde PMC Headspace Response Ratio [1]	other results
Cc1ccc2c(c1)OCC(=O)CO2 [Material 17]	I (Melamine formaldehyde PMC Headspace Response Ratio greater than or equal to 10)	–	–
CCCCCCCC=O [Material 31]	I (Melamine formaldehyde PMC Headspace Response Ratio greater than or equal to 10)	–	–
C=CC(=C)CCC=C(C)C [Material 33]	I (Melamine formaldehyde PMC Headspace Response Ratio greater than or equal to 10)	–	–
CCCCCCCCC=O [Material 50]	I (Melamine formaldehyde PMC Headspace Response Ratio greater than or equal to 10)	–	–
CC(=O)c1oc2ccccc2c1C [Material 61]	I (Melamine formaldehyde PMC Headspace Response Ratio greater than or equal to 10)	–	–
CC(C)=CCC/C(C)=C\CO [Material 64]	I (Melamine formaldehyde PMC Headspace Response Ratio greater than or equal to 10)	–	–
CC(O)C(C)Cc1ccccc1 (stereo not drawn) [Material 82]	I (Melamine formaldehyde PMC Headspace Response Ratio greater than or equal to 10)	–	–
CC/C=C\CCOC(=O)C1CC1 [Material 84]	–	I (Melamine formaldehyde PMC Headspace Response Ratio greater than or equal to 10)	–
COC(=O)Cc1ccccc1 [Material 97]	–	I (Melamine formaldehyde PMC Headspace Response Ratio greater than or equal to 10)	–
CC(O)CCc1ccccc1 (stereo not drawn) [Material 98]	I (Melamine formaldehyde PMC Headspace Response Ratio greater than or equal to 10)	–	–
CC1CCC2(CCCC(=O)O2)C1 (stereo not drawn) [Material 107]	–	I (Melamine formaldehyde PMC Headspace Response Ratio greater than or equal to 10)	–
COC(=O)C=C1CCCC1 [Material 116]	–	I (Melamine formaldehyde PMC Headspace Response Ratio greater than or equal to 10)	–
Cc1ccnc2ccccc12 [Material 166]	–	I (Melamine formaldehyde PMC Headspace Response Ratio greater than or equal to 10)	–
C/C=C/CCC1CCCC(=O)O1 (stereo not drawn) [Material 187]	I (Melamine formaldehyde PMC Headspace Response Ratio greater than or equal to 10)	–	–
CC1OCC(c2ccccc2)O1 (stereo not drawn) [Material 190]	I (Melamine formaldehyde PMC Headspace Response Ratio greater than or equal to 10)	–	–
CC(C)CCCCCCO [Material 205]	–	I (Melamine formaldehyde PMC Headspace Response Ratio greater than or equal to 10)	–
CC=Cc1ccc(O)c(OC)c1 [Material 214]	–	I (Melamine formaldehyde PMC Headspace Response Ratio greater than or equal to 10)	–
OCCCc1ccccc1 [Material 254]	I (Melamine formaldehyde PMC Headspace Response Ratio greater than or equal to 10)	–	–
O=C(O)CCc1ccccc1 [Material 255]	–	I (Melamine formaldehyde PMC Headspace Response Ratio greater than or equal to 10)	–
CCC1=C(O)C(=O)C(C)O1 (stereo not drawn) [Material 259]	I (Melamine formaldehyde PMC Headspace Response Ratio greater than or equal to 10)	–	–

SMILES	Melamine formaldehyde PMC Headspace Response Ratio (Comment Code I) [1, 3]	Comment Code: Melamine formaldehyde PMC Headspace Response Ratio [1]	other results
CCCCCCOC(=O)CC [Material 264]	–	I (Melamine formaldehyde PMC Headspace Response Ratio greater than or equal to 10)	–
CCCCCCCO [Material 282]	–	I (Melamine formaldehyde PMC Headspace Response Ratio greater than or equal to 10)	–
CCCCCCC=O [Material 284]	–	I (Melamine formaldehyde PMC Headspace Response Ratio greater than or equal to 10)	–
O=Cc1ccc2c(c1)OCO2 [Material 287]	–	I (Melamine formaldehyde PMC Headspace Response Ratio greater than or equal to 10)	–
CCCCCC1CCC(=O)O1 (stereo not drawn) [Material 321]	I (Melamine formaldehyde PMC Headspace Response Ratio greater than or equal to 10)	–	–
CCOC(=O)OC1CCCCC1C(C)(C)C (stereo not drawn) [Material 365]	–	I (Melamine formaldehyde PMC Headspace Response Ratio greater than or equal to 10)	–
C=CCc1ccc(O)c(OC)c1 [Material 375]	I (Melamine formaldehyde PMC Headspace Response Ratio greater than or equal to 10)	–	–
CCCCCCC(=O)CC [Material 394]	I (Melamine formaldehyde PMC Headspace Response Ratio greater than or equal to 10)	–	–
O=C1CCc2ccccc2O1 [Material 442]	–	I (Melamine formaldehyde PMC Headspace Response Ratio greater than or equal to 10)	–
CCCCSCCCC [Material 453]	I (Melamine formaldehyde PMC Headspace Response Ratio greater than or equal to 10)	–	–
CCCCCC1CCCC1=O (stereo not drawn) [Material 469]	–	I (Melamine formaldehyde PMC Headspace Response Ratio greater than or equal to 10)	–
OC1CCC2CCCCC2C1 (stereo not drawn) [Material 474]	I (Melamine formaldehyde PMC Headspace Response Ratio greater than or equal to 10)	–	–
COc1cc(C)ccc1O [Material 492]	–	I (Melamine formaldehyde PMC Headspace Response Ratio greater than or equal to 10)	–
c1ccc2occc2c1 [Material 493]	I (Melamine formaldehyde PMC Headspace Response Ratio greater than or equal to 10)	–	–
C=CC(C)=CC=CC(=C)C [Material 495]	–	I (Melamine formaldehyde PMC Headspace Response Ratio greater than or equal to 10)	–
CC(C)=CCCC(C)CC#N (stereo not drawn) [Material 509]	–	I (Melamine formaldehyde PMC Headspace Response Ratio greater than or equal to 10)	–
C=CC(C)=CCC=C(C)C [Material 524]	I (Melamine formaldehyde PMC Headspace Response Ratio greater than or equal to 10)	–	–
C/C=C\c1ccc(O)c(OC)c1 [Material 528]	–	I (Melamine formaldehyde PMC Headspace Response Ratio greater than or equal to 10)	–
CC/C=C\CCCCCO [Material 530]	I (Melamine formaldehyde PMC Headspace Response Ratio greater than or equal to 10)	–	–
CC/C=C\CCOC(=O)CC [Material 538]	–	I (Melamine formaldehyde PMC Headspace Response Ratio greater than or equal to 10)	–

SMILES	Melamine formaldehyde PMC Headspace Response Ratio (Comment Code I) [1, 3]	Comment Code: Melamine formaldehyde PMC Headspace Response Ratio [1]	other results
CC/C=C\CCO [Material 542]	–	I (Melamine formaldehyde PMC Headspace Response Ratio greater than or equal to 10)	–
CCC/C=C\CO [Material 547]	–	I (Melamine formaldehyde PMC Headspace Response Ratio greater than or equal to 10)	–
N#CC=Cc1ccccc1 [Material 549]	–	I (Melamine formaldehyde PMC Headspace Response Ratio greater than or equal to 10)	–
O=C/C=C/c1ccccc1 [Material 554]	–	I (Melamine formaldehyde PMC Headspace Response Ratio greater than or equal to 10)	–
OCC=Cc1ccccc1 [Material 555]	I (Melamine formaldehyde PMC Headspace Response Ratio greater than or equal to 10)	–	–
N#C/C=C/c1ccccc1 [Material 556]	–	I (Melamine formaldehyde PMC Headspace Response Ratio greater than or equal to 10)	–
CCCCCCCC#N [Material 578]	–	–	Melamine formaldehyde PMC Headspace Response Ratio (Comment Code I) [1]: I (Melamine formaldehyde PMC Headspace Response Ratio greater than or equal to 10)
CCOCCOCCO [Material 579]	–	I (Melamine formaldehyde PMC Headspace Response Ratio greater than or equal to 10)	–
CCCCCCCCO [Material 580]	–	–	Melamine formaldehyde PMC Headspace Response Ratio (Comment Code I) [1]: I (Melamine formaldehyde PMC Headspace Response Ratio greater than or equal to 10)
CC(=O)CCc1ccccc1 [Material 640]	–	I (Melamine formaldehyde PMC Headspace Response Ratio greater than or equal to 10)	–
CC(C)(O)Cc1ccccc1 [Material 649]	–	–	Melamine formaldehyde PMC Headspace Response Ratio (Comment Code I) [1]: I (Melamine formaldehyde PMC Headspace Response Ratio greater than or equal to 10)
OCc1ccccc1 [Material 652]	–	I (Melamine formaldehyde PMC Headspace Response Ratio greater than or equal to 10)	–
CC(O)CCC1CCCCC1 (stereo not drawn) [Material 699]	–	I (Melamine formaldehyde PMC Headspace Response Ratio greater than or equal to 10)	–
CC(C=O)=Cc1ccccc1 [Material 701]	–	I (Melamine formaldehyde PMC Headspace Response Ratio greater than or equal to 10)	–
COc1ccc(C=O)c(OC)c1OC [Material 733]	–	–	Melamine formaldehyde PMC Headspace Response Ratio (Comment Code I) [1]: I (Melamine formaldehyde PMC Headspace Response Ratio greater than or equal to 10)
CC1(C)C2CCC3(C2)C1C1(CCC3(C)C)OCCO1 (stereo not drawn) [Material 1144]	–	–	Comment Code: Melamine formaldehyde PMC leakage [2, 4]: J (Melamine formaldehyde PMC leakage less than or equal to 5%); Comment Code: Melamine formaldehyde PMC leakage ([2]; code letter J): J (Melamine formaldehyde PMC leakage less than or equal to 5%)
CC1(C)C2CCC3(C2)C1C1(CCC3(C)C)OCCO1 (stereo not drawn) [Material 1145]	–	–	Comment Code: Melamine formaldehyde PMC leakage [2, 4]: J (Melamine formaldehyde PMC leakage less than or equal to 5%); Comment Code: Melamine formaldehyde PMC leakage ([2]; code letter J): J (Melamine formaldehyde PMC leakage less than or equal to 5%)
COc1cc(CCC(C)=O)ccc1O [Material 1146]	–	–	Comment Code: Melamine formaldehyde PMC leakage [2, 4]: J (Melamine formaldehyde PMC leakage less than or equal to 5%)
CC1=CC2=C(C(C)C)CC[C@@H](C)[C@H]2CC1 [Material 1147]	–	–	Comment Code: Melamine formaldehyde PMC leakage [2, 4]: J (Melamine formaldehyde PMC leakage less than or equal to 5%)
C=C1CCC2OC2(C)CCC2C1CC2(C)C (stereo not drawn) [Material 1148]	–	–	Comment Code: Melamine formaldehyde PMC leakage [2, 4]: J (Melamine formaldehyde PMC leakage less than or equal to 5%); Comment Code: Melamine formaldehyde PMC leakage ([2]; code letter J): J (Melamine formaldehyde PMC leakage less than or equal to 5%)
